Record: PubChem BioAssay AID504784 (Drosophila RNAi Screening Center, 2011)
The deposit covers about 17,000 reagents; below is a random part of those that have a named target and a result. 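Each column is one replicate's B-score; the combined score over replicates was not deposited, so single values may mislead.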 Reagents against one gene are numbered here. Names joined by + are all predicted targets of the reagent. Further read-outs or replicates are left out here. No sequences are given here.

Aim: 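Search for regulators of lipid droplet storage in oleate-fed fly cells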 (primary screen)
Cell system: Drosophila Kc167 embryonic cells
Reagents: long dsRNA against Drosophila genes, about 250 ng dsRNA per well
Timing: 4 days
Conditions: cells fed 400 µM oleic acid bound to BSA
Measurement: 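Microscope images give a droplet-to-nucleus area ratio, taken as log and converted to a screen-wide B-score; higher values mean greater lipid storage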
Reading the numbers: droplet/nuclear area B-score: higher = more stored lipid (overstorage)

| target gene | dsRNA no. | droplet/nuclear area B-score, replicate 1 | droplet/nuclear area B-score, replicate 2 |
| --- | --- | --- | --- |
| fdl | 1 | -0.376 | -0.305 |
| Cdc2rk | 1 | -0.704 | -0.1 |
| Mst36Fa | 1 | 0.209 | -0.281 |
| gammaCOP | 1 | 6.68 | 5.2 |
| CG1674 | 1 | -0.372 | -0.265 |
| mRpS35 | 1 | 0.245 | 5.08 |
| Mkrn1 | 1 | -0.665 | -0.288 |
| pim | 1 | -1.25 | 0.264 |
| asRNA:Eig63F-2 + Eip63F-1 | 1 | -0.788 | -0.539 |
| Gr61a | 1 | -1.46 | -0.128 |
| ChT | 1 | 1.7 | 2.21 |
| sit | 1 | 0.524 | -4.76 |
| CG2663 | 1 | -0.0145 | 0.891 |
| wrm1 | 1 | 3.18 | 0.695 |
| mew | 1 | -0.781 | -0.708 |
| mew | 2 | -0.229 | -0.0852 |
| lwr | 1 | -0.109 | 0.7 |
| gish | 1 | 0.148 | 4.44 |
| Gr10b | 1 | 0.774 | 0.352 |
| Nep3 | 1 | -0.905 | -0.038 |
| slf | 1 | 0.519 | -1.14 |
| CG10663 | 1 | -0.0252 | 0.799 |
| barc | 1 | -2.3 | -0.662 |
| CG13810 | 1 | 0.681 | 0.457 |
| CG13810 | 2 | -0.543 | -0.295 |
| Phk-3 | 1 | 0.423 | -1.01 |
| AhcyL2 | 1 | 0.302 | 0.192 |
| Tat | 1 | -2.51 | 0.1 |
| Prim2 | 1 | 1.15 | 1.01 |
| fuss | 1 | -0.0362 | -0.858 |
| fuss | 2 | -0.758 | 1.04 |
| Drsl1 | 1 | -1.44 | -0.409 |
| spi | 1 | -0.377 | 0.436 |
| CG33257 | 1 | -1.35 | 1.27 |
| pelo | 1 | -1.01 | 0.456 |
| dimm | 1 | -0.0172 | 0.811 |
| ana | 1 | -0.479 | 0.308 |
| csw | 1 | 2.47 | 1.61 |
| csw | 2 | -1.96 | -1.67 |
| sav | 1 | -1.68 | -0.736 |
| sav | 2 | -0.562 | 0.595 |
| CG14100 | 1 | 0.486 | 1.34 |
| Impbeta11 | 1 | -1.85 | -1.02 |
| CG42843 (retired record) | 1 | -1.19 | 0.141 |
| CG42843 (retired record) | 2 | -0.664 | -1.54 |
| CG6983 | 1 | 2.37 | 0.0925 |
| CG12715 | 1 | -0.14 | 0.33 |
| CG5347 | 1 | -0.0197 | -1.16 |
| CR30409 | 1 | -1.67 | -1.19 |
| CG11843 | 1 | -0.826 | – |
| Kr | 1 | 0.479 | -0.000593 |
| Mlp60A | 1 | 0.216 | 0.988 |
| Mlp60A | 2 | -2.32 | -1.05 |
| Mlp60A | 3 | 0.48 | -0.192 |
| CG31204 | 1 | 0.47 | 1.48 |
| CG5662 | 1 | -1.55 | -0.149 |

3 successive reagents already listed, quoted:
| target gene | dsRNA no. | droplet/nuclear area B-score, replicate 1 | droplet/nuclear area B-score, replicate 2 |
| --- | --- | --- | --- |
| gish | 1 | 0.148 | 4.44 |
| Gr10b | 1 | 0.774 | 0.352 |
| Nep3 | 1 | -0.905 | -0.038 |
